Experimental data reported in US20240252454A1, “COMPOSITION COMPRISING AN INHIBITOR OF MITOCHONDRIAL TRANSCRIPTION” (LEAD DISCOVERY CENTER GMBH, priority 2021, published 2024).
At least one structure is not confirmed: it was looked up by name or label, or the drawing left a doubt.

Test system: 33 tumour cell lines from different tissues
Assay: SRB assay, panel of tumour cell lines
Format: cell-based
Conditions: fixed concentration of IMT (3S)-1-[(2R)-2-[4-(2-chloro-4-fluoro-phenyl)-2-oxo-chromen-7-yl]oxypropanoyl]piperidine-3-carboxylic acid against concentration series of the labelled inhibitor
Experimental: Solforhodamine B assay is carried out as described in Voigt W. (2005) Sulforhodamine B Assay and Chemosensitivity. (Methods in Molecular Medicine™, vol 110. Humana Press. https://doi.org/10.1385/1-59259-869-2:039).
The determination of changes in cellular biomass was based on the Solforhodamine B assay format, carried out as described in Voigt W. (2005) Sulforhodamine B Assay and Chemosensitivity. (Methods in Molecular Medicine™, vol 110. Humana Press. https://doi.org/10.1385/1-59259-869-2:039).
All in vitro cell culture experiments were carried out under near physiological glucose concentrations (5 mM) in at least two independent replicates.
To establish the method described, combinations of (3S)-1-[(2R)-2-[4-(2-chloro-4-fluoro-phenyl)-2-oxo-chromen-7-yl]oxypropanoyl]piperidine-3-carboxylic acid and various PARPi were tested with regard to their effect on the cell growth of 33 tumour cell lines from different tissues, in the SRB and CTG assay format. The assay methods and protocols in cell culture and measurement followed the procedure as described in Example 1). […] This initial study was followed by validation experiments in a matrix format and in the CTG assay, as described for Example 1) (Table 6.) […]

Row | Compound | combinatorial effect in the majority of the cell lines and tissue types examined
1 | C[C@H](Nc1ncnc2nc[nH]c12)c1cc2cccc(Cl)c2c(=O)n1-c1ccccc1 [Duvelisib] | clear synergistic effect
2 | N#CC[C@H](C1CCCC1)n1cc(-c2ncnc3[nH]ccc23)cn1 [Ruxolitinib] | clear synergistic effect
